Laboratory results reported in PubChem BioAssay AID504648 (National Center for Advancing Translational Sciences (NCATS), 2011).
The campaign covered roughly 390,000 compounds. About 610 (0.16%) were called active. The shares of active, inactive and inconclusive entries below differ from those in the screen. The call rests on the fitted dose curve; in most records, active means well fitted inhibition curve with a large enough effect; inconclusive means small, poorly fitted or top-dose-only effect, or effect the other way, or another doubt; inactive means no such curve, though single readings can be large or run the other way. Potencies of inconclusive entries are doubtful fits and often do not repeat.
Potency means the concentration at half of the fitted maximal effect.

Assay: Nrf2 qHTS screen for inhibitors: counterscreen for cytotoxicity
Conditions: A549 ARE-Fluc cells, CellTiter-Fluor viability, 18-24 h; series mostly up to 46 µM
Procedure, shortened: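 Cytotoxicity counterscreen: CellTiter-Fluor fluorescence was measured in A549 ARE_Fluc cells after 18-24 h of compound exposure in a concentration series. The subsequent BugLite luminescent read reports ARE-luciferase activity.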
For O=C1S/C(=C\c2ccc(O)c([N+](=O)[O-])c2)C(=O)N1c1ccccc1Cl, the Potency was inconclusive: 20.6 µM [falling, partial curve].
With [N-]=[N+]=CC(=O)CNC(=O)[C@@H](Cc1ccccc1)N1C(=O)c2ccccc2C1=O the Potency was active: 13 µM.
For CCCCN(C(=O)CSc1nn(-c2ccc(F)cc2)c(=S)s1)c1c(N)n(CCCC)c(=O)[nH]c1=O, the Potency was inconclusive: 10.3 µM [falling, partial curve, poor fit].
With CN1CCN(C(=O)C(N)Cc2ccccc2)CC1 (stereo not given) the Potency was inconclusive: 11.6 µM [falling, partial curve].
In the case of O=S(=O)(c1cc(Cl)sc1Cl)N1CCCC1, the Potency is reported as inconclusive: 3.26 µM [activator, full curve, poor fit].
For Cc1ccc(Cl)cc1Nc1sc(C(=O)c2ccccc2)c(N)c1S(=O)(=O)c1ccccc1, the Potency was “inactive”.
For CCCCn1c(N)c(N(CCOC)C(=O)CSCc2cccc(C)c2)c(=O)[nH]c1=O, the Potency was “inactive”.
In the case of Cc1cc2nc(-c3ccc(SCc4ccc(C#N)cc4)nc3)[nH]c2cc1C, the Potency is reported as inconclusive: 10.3 µM [falling, partial curve, poor fit].
With CC(C)OC(=O)/C(=C\c1ccc2c(c1)c1ccccc1n2C)NC(=O)c1ccccc1 the Potency was “inactive”.
With Cc1ccc(-c2csc(NC3OC(=O)c4ccccc43)n2)cc1 (stereo not given) the Potency was inconclusive: 29.1 µM [falling, single point].
With CCc1cnc2c(c1SCC(=O)NCc1ccccc1)c(=O)n(C)c(=O)n2C the Potency was “inactive”.
In the case of COc1ccc(/C=C2\Oc3cc(OCC(=O)N4CC(O)C[C@H]4C(=O)O)ccc3C2=O)cc1OC (stereo not given in full), the Potency is reported as inconclusive: 20.6 µM [falling, single point].
For CCn1ccc2cc(S(=O)(=O)N3CCC(C(=O)NCCOC)CC3)ccc21, the Potency was “inactive”.
In the case of Cc1ccc2c(c1)c1c(n2CCc2ccc(C)nc2)CCN(C)C1, the Potency is reported as inconclusive: 20.6 µM [falling, partial curve, poor fit].
With C(=N\NC1=Nc2cccc3cccc1c23)/c1cccnc1 the Potency was inconclusive: 29.1 µM [falling, partial curve, poor fit].
With COCCn1c(C)cc(O)c(C(c2ccccc2OC)N2CCCCC2)c1=O (stereo not given) the Potency was “inactive”.
For CCc1cc2c(=O)c(-c3cnn(-c4ccccc4)c3)coc2c(CN2CCOCC2)c1O, the Potency was “inactive”.
In the case of COc1cc(OC)c2c(C)cc(=O)oc2c1C(CCN1CCN(c2ccccc2)CC1)c1ccc2c(c1)OCO2 (stereo not given), the Potency is reported as inconclusive: 20.6 µM [falling, partial curve].
In the case of COc1ccccc1-c1noc(CCC(=O)N2CCN(c3cc(C)ccc3C)CC2)n1, the Potency is reported as inconclusive: 29.1 µM [falling, single point].
For FC(F)(F)c1cnc(NNC(=S)Nc2ccccc2Cl)c(Cl)c1, the Potency was inconclusive: 23.1 µM [falling, single point].
For CCc1ccc(C(=O)c2cnc3ccc(C)cc3c2S(=O)(=O)c2ccc(OC)cc2)cc1, the Potency was “inactive”.
For C=CCN1C=C/C(=C\C=C(C#N)C#N)c2ccccc21, the Potency was active: 18.4 µM.
In the case of CC(C)(C)C(=O)Nc1ccc(S(=O)(=O)NC2=NCCCCC2)cc1, the Potency is reported as “inactive”.
In the case of Cc1ccc(NC(=O)CSc2nn(-c3ccccc3)c(=S)s2)cc1S(=O)(=O)N(C)C, the Potency is reported as inconclusive: 2.91 µM [falling, partial curve, poor fit].
For Cc1cccc(N2C(=O)CS(=O)(=O)C23C(=O)N(C)c2ccccc23)c1 (stereo not given), the Potency was “inactive”.
For Oc1c(Cl)cc(CN2CCOCC2)c2cccnc12, the Potency was inconclusive: 14.6 µM [falling, partial curve, poor fit].
In the case of CC(C)COC(=O)c1ccc(N2C(=O)c3ccccc3C2=O)cc1, the Potency is reported as inconclusive: 6.51 µM [falling, partial curve, poor fit].
With COCC(=O)Nc1cc(Cl)ccc1C the Potency was “inactive”.
With C[C@H](CO)N1C[C@H](C)[C@@H](CN(C)C(=O)Nc2ccc(C(F)(F)F)cc2)Oc2c(NC(=O)NC3CCCCC3)cccc2C1=O the Potency was inconclusive: 18.4 µM [falling, partial curve, poor fit].
For Cc1ccc(CCNC(=O)c2c(C)oc3ncnc(N4CCOCC4)c23)cc1, the Potency was “inactive”.
With COc1cc2c(cc1OC)CN(C(=O)c1cc3ccccc3oc1=O)CC2 the Potency was “inactive”.
For COc1ccc(S(=O)(=O)Nc2ccc3c(c2)CCC3)cc1, the Potency was “inactive”.
For Cc1cn(-c2cccnc2)c(C)c1CNC[C@H]1O[C@@H](n2cnc3c(N)ncnc32)[C@H](O)[C@@H]1O, the Potency was “inactive”.
In the case of CC(=O)Nc1ccc(C2CC(c3ccc(Cl)cc3)=NN2c2ccccc2)cc1 (stereo not given), the Potency is reported as inconclusive: 10.3 µM [activator, partial curve, poor fit].
For O=C(CN(c1ccc(F)cc1)S(=O)(=O)c1ccc2c(c1)OCCO2)NCc1ccccc1, the Potency was inconclusive: 29.1 µM [falling, single point].
For CC1Cc2ccccc2N1C(=O)c1ccc(N2CCCCC2)c([N+](=O)[O-])c1 (stereo not given), the Potency was “inactive”.
In the case of CN1CCN(Cc2cc(Cl)c3cccnc3c2OC(=O)c2cccs2)CC1, the Potency is reported as “inactive”.
For O=C(c1cc(S(=O)(=O)N2CCOCC2)ccc1F)N(Cc1nnc(-c2ccccc2Cl)o1)C1CC1, the Potency was “inactive”.
For Cc1cccc(C)c1NC(=O)C(c1ccc(Cl)cc1Cl)N1CCCCC1 (stereo not given), the Potency was inconclusive: 18.4 µM [falling, partial curve, poor fit].
With CCOc1ccc(NS(=O)(=O)c2cc(NC(=O)c3ccc(C)cc3)ccc2Cl)cc1 the Potency was inconclusive: 29.1 µM [falling, partial curve, poor fit].
In the case of CCOC(=O)c1c(NC(=O)CSc2cn(CCNC(=O)c3ccccc3OC)c3ccccc23)sc2c1CCC2, the Potency is reported as “inactive”.
In the case of Cc1ccc(-n2c(C)cc3c2CCCC3=O)cc1, the Potency is reported as inconclusive: 0.58 µM [activator, partial curve, poor fit].
With CN1CC2=Cc3ccccc3OC23Oc2ccccc2C=C3C1 the Potency was inconclusive: 11.6 µM [falling, partial curve, poor fit].
With c1ccc2cc3c(NCCN4CCOCC4)ccnc3cc2c1 the Potency was inconclusive: 29.1 µM [falling, single point].
In the case of Cc1cccc(NC(=O)c2sc3nc4c(c(-c5cccs5)c3c2N)CN(C)CC4)c1, the Potency is reported as inconclusive: 18.4 µM [falling, single point].
With Cn1c(=O)c(-c2ccccc2[N+](=O)[O-])c(Cl)c2ccccc21 the Potency was inconclusive: 18.4 µM [falling, partial curve, poor fit].
With COc1cccc(CNC(=O)C2(c3cccs3)CCOCC2)c1 the Potency was “inactive”.
With COc1ccccc1/C=C/C(=O)Nc1ccc2c(c1)OCCO2 the Potency was “inactive”.
In the case of CC(C)c1ccc(N(C(=O)c2snc(C(N)=O)c2N)C(C(=O)NCC2CCCO2)c2ccc(N(C)C)cc2)cc1 (stereo not given), the Potency is reported as inconclusive: 29.1 µM [falling, single point].
For c1ccc(/N=C2\N=C(Nc3ccccn3)c3ccccc32)nc1, the Potency was “inactive”.
For CCOC(=O)c1cc2c(=O)n3ccccc3nc2n(CC2CCCO2)c1=NC(=O)c1ccc(OC)cc1OC (stereo not given), the Potency was “inactive”.
In the case of Nc1cc2c3c(cccc3c1)C(=O)N(CCN1CCCC1)C2=O, the Potency is reported as inconclusive: 23.1 µM [falling, single point].
With CCOC(=O)C1=C(C)NC(=O)NC1C(C)C (stereo not given) the Potency was “inactive”.
With O=C(NNc1ccc(C(F)(F)F)cc1[N+](=O)[O-])c1ccc(NS(=O)(=O)c2ccc(F)cc2)cc1 the Potency was inconclusive: 20.6 µM [falling, single point].
In the case of Cc1ccccc1C(=O)N1CCN(c2ccc([N+](=O)[O-])c(NCc3ccco3)c2)CC1, the Potency is reported as inconclusive: 23.1 µM [falling, single point].
For Cc1ccc(/C=C2/NC(=O)N(Cc3ccccc3)C2=O)o1, the Potency was “inactive”.
With N#Cc1nc(Nc2ccc(C(F)(F)F)cc2)nc(NC2CCCC2)n1 the Potency was inconclusive: 29.1 µM [falling, partial curve, poor fit].
With Cc1ccc(C)c(N2CCN(CCCNC(=O)c3ccc4nc(N5CCCCC5)sc4c3)CC2)c1 the Potency was inconclusive: 18.4 µM [falling, single point].
In the case of CCOC(=O)c1sc(NC(=O)c2ccco2)c(C#N)c1C, the Potency is reported as inconclusive: 32.6 µM [falling, partial curve, poor fit].
For CCC(C)[C@H]1CNCCN1CCC12CC3CC(CC(C3)C1)C2 (stereo not given in full), the Potency was inconclusive: 3.26 µM [activator, partial curve, poor fit].
With O=C(Nc1noc2ccccc12)c1ccc(F)cc1 the Potency was “inactive”.
In the case of O=c1oc2ccccc2cc1-c1csc(Cc2nc(-c3ccc(Br)cc3)cs2)n1, the Potency is reported as “inactive”.
For Cc1ccccc1-n1c(SCC(=O)N/N=C/c2c(C)nn(-c3ccccc3)c2C)nc2ccccc2c1=O, the Potency was inconclusive: 5.17 µM [falling, partial curve].
In the case of CCCSC1=N/C(=C/c2ccsc2)C(=O)N1c1ccccc1, the Potency is reported as “inactive”.
For COc1ccc(S(=O)(=O)N2CCC(C)CC2)cc1OC, the Potency was “inactive”.
For O=S(=O)(c1ccc2ncccc2c1)N1CCN(c2nc(-c3cccs3)nc3ccccc23)CC1, the Potency was “inactive”.
For COc1ccc(-c2csc(NC3OC(=O)c4ccccc43)n2)cc1 (stereo not given), the Potency was inconclusive: 29.1 µM [falling, single point].
In the case of O=[N+]([O-])c1cc(/C=N/OCc2c(Cl)cccc2Cl)ccc1N1CCOCC1, the Potency is reported as inconclusive: 11.6 µM [falling, partial curve, poor fit].
In the case of COc1ccc(CNCc2cc(C)c(OC)cc2C)c(OC)c1, the Potency is reported as inconclusive: 9.2 µM [falling, partial curve, poor fit].
In the case of Cc1ccc(C(=O)O/N=C(\N)c2ccccn2)c(C)c1, the Potency is reported as inconclusive: 29.1 µM [falling, single point].
